At least one structure is not confirmed: it was looked up by name or label, or the drawing left a doubt.
Target: T1, human CD38 (Homo sapiens, UniProt P28907)
T1 sequence (P28907 43-300 limits assumed): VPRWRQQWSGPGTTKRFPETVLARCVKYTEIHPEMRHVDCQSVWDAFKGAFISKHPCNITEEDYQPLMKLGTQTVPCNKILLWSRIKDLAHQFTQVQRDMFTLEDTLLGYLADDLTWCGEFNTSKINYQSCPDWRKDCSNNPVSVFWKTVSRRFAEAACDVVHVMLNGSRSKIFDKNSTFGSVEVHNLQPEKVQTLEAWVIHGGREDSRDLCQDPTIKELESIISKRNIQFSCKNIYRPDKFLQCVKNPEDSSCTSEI
Test: Radiochemical labeling of CD38 by [2'-3H] inhibitor (gel filtration, scintillation counting)
Format: binding
Parameters: The soluble domain of human CD38 catalyzes the conversion of NAD^+ to cyclic-ADP-ribose
Conditions: specific radioactivity 866 cpm/nmol
Description: Radiochemical measurement of inhibitor binding. […] Inhibitor at 9 μM with specific radioactivity of 866 cpm/nmol, was incubated with 1.2 μM CD38 (monomer) in 1 mL 50 mM potassium phosphate (pH 7.5). The reactions were started by enzyme addition and quenched by freezing with a dry ice/acetone bath at 30, 60 90, 120, 250, 500, and 1000 s. Cooled (0° C.) gel filtration columns were used to separate protein with cooled (0° C.) 10 mM potassium phosphate as eluant. The frozen fraction were quickly thawed, applied to these columns and fractions collected in 1 mL volumes over the course of several minutes. Scintillation fluid (9 mL) was then added to each 1 mL fraction and samples counted. […] The observed radioactivity was fit using the equation A(t)=A0(1−exp(−kt))+B. where A0 is activity at reaction completion, k is the observed pseudo-first order rate constant and B is the activity of the blank.
Titration of Enzyme with [2′-^3H]Inhibitor. CD38 inactivation was accomplished using a radiolabeled inhibitor to assess inhibitor interactions with the enzyme independent from inhibition of the catalytic activity. This method allows the determination of the stoichiometry of covalent labeling, and detects cooperativity at multiple sites. […] (FIG. 8) within reasonable agreement with the rate constant for inactivation in kinetic assays of inhibition (kon=0.0042 s^−1 at 19° C.). […]

Q: With `[3H]C1[C@H]([n+]2cccc(C(N)=O)c2)O[C@H](CO)[C@H]1O` (stereo partly shown) [[2′-^3H]-1, [2′-^3H]Nicotinamide deoxyriboside] as the molecule, how does the “stoichiometry of labeling, inhibitor versus CD38 monomer” value read?
A: 1:1

From patent publication US7022680B2, “Inhibitors of ADP-ribosyl transferases, cyclases, and hydrolases” (Albert Einstein College of Medicine of Yeshiva University, priority 2002, dated 2006)
